Source: PubChem BioAssay AID1347426 (Functional Genomics Laboratory (NCATS/FGL), 2020)
The whole screen tested about 31,000 sequences, of which about 1,400 (4.5%) were called active.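 How the source made its calls: active means median seed-adjusted z-score above 1 or below -1; inactive means the rest.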 The list shows a part of the results.

Assay: Novel Modifiers of Survival Motor Neuron (SMN) Protein: Gene Identification via Genome-wide siRNA Screen;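 further: luminescence tracks full-length SMN protein made from the SMN2 reporter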
Conditions: HEK293T SMN2-luciferase reporter, siRNA knockdown, 72 h; actives lie on both sides
How it was run: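 HEK293T cells stably expressing an SMN2 splicing/cDNA-luciferase reporter were reverse-transfected with a druggable-genome siRNA library and read by luminescence at 72 hours; hits defined by MAD score above 1.0 or below -1.0.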

For CCUGCAGAGAUGUACUGAATT against RDH12, which median seed-adjusted z-score is on record?
The median seed-adjusted z-score was inactive: -0.0267.

Which median seed-adjusted z-score does the source give for GGUGGGACACCGAGACAUATT against CABP1 here?
The median seed-adjusted z-score was inactive: -0.192.

With CCAGACUGAUGAGAACAAUTT against GOLGA2L1 as the sequence, how does the median seed-adjusted z-score read?
Its median seed-adjusted z-score is inactive: 0.487.

For CUCCUGUCGUUAGACCUAATT against MDM4, which median seed-adjusted z-score is on record?
The median seed-adjusted z-score was inactive: 0.0554.

Which median seed-adjusted z-score does the source give for UGAAGUUCCUGAAUAACCATT against NR5A1 here?
Its median seed-adjusted z-score is inactive: -0.467.

Which median seed-adjusted z-score does the source give for GAAGUAUUCUCCGAUUUUATT against UBE4B here?
The median seed-adjusted z-score was inactive: -0.0364.

For CAUUGUUAAUGCUACCAUUTT against DUSP14, which median seed-adjusted z-score is on record?
Its median seed-adjusted z-score is inactive: 0.0654.

For GCCUGAUUCUGAGUGAUGATT against SPTLC2, which median seed-adjusted z-score is on record?
Its median seed-adjusted z-score is inactive: 0.

For GCACAGCCCUGCUCAACAATT against ZFP36L2, which median seed-adjusted z-score is on record?
Its median seed-adjusted z-score is inactive: -0.0485.

Which median seed-adjusted z-score does the source give for GACUCUAACCUGGAUCGAATT against NID1 here?
The median seed-adjusted z-score was inactive: 0.761.

Which median seed-adjusted z-score does the source give for CCUCCAAGGAUGAAUGUAATT against BOC here?
Its median seed-adjusted z-score is inactive: -0.0192.

With CAAAGGAUAAGAAAGAAAATT against METTL1 as the sequence, how does the median seed-adjusted z-score read?
Its median seed-adjusted z-score is inactive: 0.0494.

With GCUCUAACCUCACUAAUCATT against ZNF256 as the sequence, how does the median seed-adjusted z-score read?
Its median seed-adjusted z-score is inactive: 0.00739.

For CAGCAUAGGUGGUUUGUGATT against GPR62, which median seed-adjusted z-score is on record?
The median seed-adjusted z-score was inactive: 0.0306.

With GGAGUAGACUCAACAGUUUTT against GMPS as the sequence, how does the median seed-adjusted z-score read?
Its median seed-adjusted z-score is inactive: -0.485.

With GAAGAAAUACCGUCAUUUUTT against PLD2 as the sequence, how does the median seed-adjusted z-score read?
The median seed-adjusted z-score was inactive: -0.743.

For GGAUGAGAACAUUAAAACATT against COQ3, which median seed-adjusted z-score is on record?
Its median seed-adjusted z-score is inactive: 0.426.

With GAUAAUUCCAUGACAUUAUTT against CYP39A1 as the sequence, how does the median seed-adjusted z-score read?
Its median seed-adjusted z-score is inactive: 0.196.

With GGAUGAUCGCGGAUGGAUUTT against SLC4A8 as the sequence, how does the median seed-adjusted z-score read?
The median seed-adjusted z-score was inactive: -0.474.

With CGGGAGAAGUUAGCACUCUTT against SSBP2 as the sequence, how does the median seed-adjusted z-score read?
The median seed-adjusted z-score was inactive: 0.

For CAACGGGACUAUUAUGAUATT against HNRNPC, which median seed-adjusted z-score is on record?
Its median seed-adjusted z-score is active: -2.15.

With CAAUCAGCACAAUGGUUCATT against ARAP2 as the sequence, how does the median seed-adjusted z-score read?
Its median seed-adjusted z-score is inactive: 0.388.

Which median seed-adjusted z-score does the source give for CAAUAGUAAAGGGAUAUAATT against MED27 here?
Its median seed-adjusted z-score is active: -1.62.

For GGCUCAAUCCGGAGAAAGATT against SLC12A5, which median seed-adjusted z-score is on record?
Its median seed-adjusted z-score is inactive: -0.22.

Which median seed-adjusted z-score does the source give for GCUUCAAGCACAAAGGAAATT against DDX56 here?
The median seed-adjusted z-score was inactive: 0.904.

For CGUGUCCUGUCUGAACCAATT against ESCO2, which median seed-adjusted z-score is on record?
Its median seed-adjusted z-score is inactive: 0.

With CAGUCAAGCUUGGAGUUAATT against SYTL3 as the sequence, how does the median seed-adjusted z-score read?
Its median seed-adjusted z-score is inactive: 0.236.

For CAAGCGACUUUAUAGCCUUTT against PRKDC, which median seed-adjusted z-score is on record?
The median seed-adjusted z-score was inactive: -0.485.

With GCAACUUCAUUUCUCAUCUTT against CA6 as the sequence, how does the median seed-adjusted z-score read?
Its median seed-adjusted z-score is inactive: 0.349.

For GGAUAUGCCUGAGUAUGAATT against SEC23A, which median seed-adjusted z-score is on record?
Its median seed-adjusted z-score is inactive: 0.131.

For CUGUAUUAGUAGCAGUUGATT against ATP7A, which median seed-adjusted z-score is on record?
Its median seed-adjusted z-score is inactive: 0.

Which median seed-adjusted z-score does the source give for GGAGAUACCCUCAAGUAUATT against LRRTM3 here?
The median seed-adjusted z-score was inactive: -0.0808.

Which median seed-adjusted z-score does the source give for CACCAGCUACCAAUAAAAATT against FOXK2 here?
Its median seed-adjusted z-score is inactive: -0.348.

Which median seed-adjusted z-score does the source give for GCAGAGCCCUCAGCAAAUATT against TCOF1 here?
The median seed-adjusted z-score was inactive: 0.819.

Which median seed-adjusted z-score does the source give for GUCAUUCACCAAAAACUUUTT against ZNF341 here?
Its median seed-adjusted z-score is inactive: 0.356.

Which median seed-adjusted z-score does the source give for AGAGAACUCUGGAACCCGUTT against HTRA2 here?
The median seed-adjusted z-score was inactive: -0.503.

Which median seed-adjusted z-score does the source give for GACCUUUCCGAAUUCAGGATT against PPM1F here?
Its median seed-adjusted z-score is inactive: -0.231.

For CAGUAGCAGUAAUACUAGATT against DDHD2, which median seed-adjusted z-score is on record?
The median seed-adjusted z-score was inactive: 0.447.

With GGGUUUAGGUGACUGUAUUTT against SLC25A31 as the sequence, how does the median seed-adjusted z-score read?
The median seed-adjusted z-score was inactive: -0.615.

For GGAAUUUAAGUGAUAGUGATT against CPEB2, which median seed-adjusted z-score is on record?
Its median seed-adjusted z-score is inactive: -0.00928.

Which median seed-adjusted z-score does the source give for CCAGCAUCAUCUUCGCAGATT against NUP210 here?
The median seed-adjusted z-score was inactive: 0.0904.

For AGAAUGUGGUUGUCCUGAATT against ACCS, which median seed-adjusted z-score is on record?
The median seed-adjusted z-score was inactive: -0.49.

With CCAGCUGUCUCAUGCCUUUTT against PLEKHF1 as the sequence, how does the median seed-adjusted z-score read?
Its median seed-adjusted z-score is inactive: 0.055.

With GGUGAAACUUCUCUACAAATT against ZNF517 as the sequence, how does the median seed-adjusted z-score read?
The median seed-adjusted z-score was inactive: 0.0158.

For GAGAGGAAAUUACCACGAATT against ADAMDEC1, which median seed-adjusted z-score is on record?
Its median seed-adjusted z-score is inactive: 0.0106.

Which median seed-adjusted z-score does the source give for CUGUAUUCACGGCAAAUGATT against ACTR5 here?
Its median seed-adjusted z-score is inactive: -0.376.

For GGUGAUACCCAGAAAACCATT against HS1BP3, which median seed-adjusted z-score is on record?
The median seed-adjusted z-score was inactive: 0.418.

With GGAGGAGUCUGACCCUGUATT against SIGLEC7 as the sequence, how does the median seed-adjusted z-score read?
Its median seed-adjusted z-score is inactive: -0.296.

For CUGUGACCAUAAUAACUGUTT against ZNF239, which median seed-adjusted z-score is on record?
Its median seed-adjusted z-score is inactive: -0.191.

With CGUGCAAGGUUGUGCGAUATT against GPR19 as the sequence, how does the median seed-adjusted z-score read?
The median seed-adjusted z-score was inactive: 0.157.

For GAAUGACAAUAACUUUGUUTT against TFPI2, which median seed-adjusted z-score is on record?
The median seed-adjusted z-score was inactive: 0.519.

For GCAAAGGCCUUGUACGUCATT against USP10, which median seed-adjusted z-score is on record?
The median seed-adjusted z-score was inactive: 0.182.

Which median seed-adjusted z-score does the source give for GGACUGUCAAUCUUAGAUATT against GRK4 here?
The median seed-adjusted z-score was inactive: -0.267.

With GAAACUUCCUUUUACCAUCTT against ERN1 as the sequence, how does the median seed-adjusted z-score read?
Its median seed-adjusted z-score is inactive: 0.684.

Which median seed-adjusted z-score does the source give for UGAAGAACUUUGCACUGCATT against MGAT4B here?
Its median seed-adjusted z-score is inactive: 0.0142.

Which median seed-adjusted z-score does the source give for GGAGCAACAUUAUAGUCAATT against TGS1 here?
Its median seed-adjusted z-score is inactive: -0.564.

Which median seed-adjusted z-score does the source give for GGACUUUCGGGAACGAGAATT against PFKM here?
Its median seed-adjusted z-score is inactive: -0.362.

With AGGAAGCUGCUAAAGCACATT against NXF5 as the sequence, how does the median seed-adjusted z-score read?
Its median seed-adjusted z-score is inactive: -0.396.

Which median seed-adjusted z-score does the source give for GGUUGAAGACAUCAUAUUATT against GABRQ here?
Its median seed-adjusted z-score is inactive: -0.54.

For CCAGUUCUCGAUUCUUAAUTT against ZNF92, which median seed-adjusted z-score is on record?
Its median seed-adjusted z-score is inactive: -0.375.

With CAUUCUCAAUCUACCGGAATT against ARID4A as the sequence, how does the median seed-adjusted z-score read?
The median seed-adjusted z-score was inactive: 0.601.

Which median seed-adjusted z-score does the source give for CUCUCUUAUUUGUAUCCUATT against SPRR3 here?
Its median seed-adjusted z-score is inactive: 0.682.

Which median seed-adjusted z-score does the source give for UGUCUUUUACUGUAAGUUATT against REPIN1 here?
The median seed-adjusted z-score was inactive: -0.0614.

Which median seed-adjusted z-score does the source give for CAACAUCUGAGGAUUCAUATT against ZNF713 here?
Its median seed-adjusted z-score is inactive: -0.0652.

For CGAUGUUAGUGAGGACUAUTT against RPS6KL1, which median seed-adjusted z-score is on record?
Its median seed-adjusted z-score is inactive: 0.0816.

Which median seed-adjusted z-score does the source give for CCUUCACUAUUGCCCGCAATT against ABCD1 here?
The median seed-adjusted z-score was inactive: 0.

Which median seed-adjusted z-score does the source give for CCCUGCUCACGUCCCUUUATT against HS3ST3A1 here?
The median seed-adjusted z-score was inactive: -0.133.

Which median seed-adjusted z-score does the source give for GGCAUACAGUUCCGAGAAATT against AGL here?
Its median seed-adjusted z-score is inactive: -0.385.
